Measured values: publication PMC5797633

The chains behind the UniProt entries cited, without tags or fusion partners.
UniProt O95071: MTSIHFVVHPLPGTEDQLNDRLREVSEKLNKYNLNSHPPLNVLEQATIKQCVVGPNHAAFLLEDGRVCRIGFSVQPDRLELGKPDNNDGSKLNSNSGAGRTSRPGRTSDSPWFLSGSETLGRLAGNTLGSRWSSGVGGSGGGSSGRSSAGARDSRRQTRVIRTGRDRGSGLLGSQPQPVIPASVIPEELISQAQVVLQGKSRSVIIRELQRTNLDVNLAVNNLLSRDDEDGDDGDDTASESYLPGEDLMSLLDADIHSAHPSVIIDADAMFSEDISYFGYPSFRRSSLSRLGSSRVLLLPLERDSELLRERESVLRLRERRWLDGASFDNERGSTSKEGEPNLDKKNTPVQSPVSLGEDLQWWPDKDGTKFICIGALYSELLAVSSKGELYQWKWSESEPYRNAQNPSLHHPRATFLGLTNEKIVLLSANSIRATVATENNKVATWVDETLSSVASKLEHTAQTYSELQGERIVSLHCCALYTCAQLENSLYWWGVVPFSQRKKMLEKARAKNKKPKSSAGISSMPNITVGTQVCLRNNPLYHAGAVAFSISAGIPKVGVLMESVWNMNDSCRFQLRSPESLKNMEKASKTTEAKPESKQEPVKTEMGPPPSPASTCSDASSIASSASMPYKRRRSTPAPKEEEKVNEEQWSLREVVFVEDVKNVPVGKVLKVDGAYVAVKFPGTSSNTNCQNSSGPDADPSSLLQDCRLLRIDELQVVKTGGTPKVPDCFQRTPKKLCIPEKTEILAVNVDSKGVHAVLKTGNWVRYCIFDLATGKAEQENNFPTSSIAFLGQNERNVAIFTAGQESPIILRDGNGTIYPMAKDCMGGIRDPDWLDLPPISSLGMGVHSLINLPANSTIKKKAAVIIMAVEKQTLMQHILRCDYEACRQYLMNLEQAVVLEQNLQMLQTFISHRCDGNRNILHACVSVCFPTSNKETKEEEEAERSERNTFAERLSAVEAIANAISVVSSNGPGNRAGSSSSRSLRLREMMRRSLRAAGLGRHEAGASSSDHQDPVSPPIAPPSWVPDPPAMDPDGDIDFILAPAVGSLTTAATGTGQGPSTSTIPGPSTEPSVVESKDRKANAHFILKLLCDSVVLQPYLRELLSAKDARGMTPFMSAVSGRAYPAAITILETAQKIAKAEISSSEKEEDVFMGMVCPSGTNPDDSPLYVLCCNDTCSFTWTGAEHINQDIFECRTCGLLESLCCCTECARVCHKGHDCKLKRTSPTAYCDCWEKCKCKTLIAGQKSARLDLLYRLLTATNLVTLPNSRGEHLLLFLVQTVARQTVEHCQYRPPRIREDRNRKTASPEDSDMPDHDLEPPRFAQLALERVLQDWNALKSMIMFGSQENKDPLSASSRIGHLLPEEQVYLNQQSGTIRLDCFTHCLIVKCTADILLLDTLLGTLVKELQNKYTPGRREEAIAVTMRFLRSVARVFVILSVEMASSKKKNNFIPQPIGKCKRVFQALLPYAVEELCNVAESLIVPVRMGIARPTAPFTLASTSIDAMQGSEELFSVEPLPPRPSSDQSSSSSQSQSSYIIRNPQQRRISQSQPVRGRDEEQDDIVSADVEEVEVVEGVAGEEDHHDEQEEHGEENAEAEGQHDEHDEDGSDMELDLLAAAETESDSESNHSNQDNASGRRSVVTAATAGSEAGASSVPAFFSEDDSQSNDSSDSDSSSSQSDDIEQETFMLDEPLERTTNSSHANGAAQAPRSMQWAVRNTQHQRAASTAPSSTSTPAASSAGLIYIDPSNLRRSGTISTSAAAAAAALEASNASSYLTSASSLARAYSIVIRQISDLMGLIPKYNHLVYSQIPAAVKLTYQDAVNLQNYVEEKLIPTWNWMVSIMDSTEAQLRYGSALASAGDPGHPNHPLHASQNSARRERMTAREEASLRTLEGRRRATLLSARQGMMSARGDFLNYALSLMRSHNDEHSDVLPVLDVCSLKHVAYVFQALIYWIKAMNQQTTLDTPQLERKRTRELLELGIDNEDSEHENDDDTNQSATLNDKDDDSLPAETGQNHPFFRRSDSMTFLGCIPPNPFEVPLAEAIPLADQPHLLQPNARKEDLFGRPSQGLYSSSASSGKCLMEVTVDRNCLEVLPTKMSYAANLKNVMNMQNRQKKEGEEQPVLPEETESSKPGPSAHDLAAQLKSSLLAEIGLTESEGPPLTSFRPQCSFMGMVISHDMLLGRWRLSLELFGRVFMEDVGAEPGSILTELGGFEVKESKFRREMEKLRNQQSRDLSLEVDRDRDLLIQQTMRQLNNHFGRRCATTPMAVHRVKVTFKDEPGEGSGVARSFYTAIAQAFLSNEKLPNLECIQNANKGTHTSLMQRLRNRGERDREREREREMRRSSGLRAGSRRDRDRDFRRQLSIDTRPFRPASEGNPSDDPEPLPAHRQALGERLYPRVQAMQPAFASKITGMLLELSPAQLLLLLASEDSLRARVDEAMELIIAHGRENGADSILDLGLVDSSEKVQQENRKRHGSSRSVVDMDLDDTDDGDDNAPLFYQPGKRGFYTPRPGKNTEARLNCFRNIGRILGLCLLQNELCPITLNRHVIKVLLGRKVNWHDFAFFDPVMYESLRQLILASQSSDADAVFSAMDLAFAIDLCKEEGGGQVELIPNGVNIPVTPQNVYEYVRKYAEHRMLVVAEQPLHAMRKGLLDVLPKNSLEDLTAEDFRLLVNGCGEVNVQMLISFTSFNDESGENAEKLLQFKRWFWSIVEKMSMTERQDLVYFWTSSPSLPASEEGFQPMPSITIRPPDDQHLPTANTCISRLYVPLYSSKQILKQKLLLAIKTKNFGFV

Target: S-tagged HBZ (HTLV-1 basic leucine zipper factor), wild type (HTLV-1) (UniProt P0C746)
Test: affinity purification with mass spectrometry; S-tagged bait purified on S beads from lysates of transfected HEK293T cells (NP-40 lysis buffer, MG-132 treated), SDS-PAGE, whole lanes digested with trypsin, MS/MS

With “UBR5, E3 ubiquitin-protein ligase (endogenous in HEK293T) (from UniProt O95071 1-2799) (enzyme)” the binding was “binds”.

No constants are given. Whether binding was seen depends on the method and setting. Binding seen in cells or lysates may run through a third protein. A yes stands for co-enrichment or nearness to the bait. Other partners may have been found.
